Test results taken from publication PMC12717421.
No constants are given. Whether binding was seen depends on the method and setting. In cells and extracts the contact can be indirect. Some entries that bind do so weakly or less than the wild type. For some of these results: Tags and fused reporters may be left off the sequences shown.

Columns and labels:
HA-Maf1/WT [1] = molecular target: T1, HA-Maf1/WT (UniProt Q9H063); test: proximity ligation; in situ PLA in formaldehyde-fixed Huh7 and Hep3B cells; anti-HA and anti-GFP antibodies for the transfected proteins, anti-Aurora-A and anti-Maf1 antibodies for the endogenous proteins in Hep3B
T1 sequence: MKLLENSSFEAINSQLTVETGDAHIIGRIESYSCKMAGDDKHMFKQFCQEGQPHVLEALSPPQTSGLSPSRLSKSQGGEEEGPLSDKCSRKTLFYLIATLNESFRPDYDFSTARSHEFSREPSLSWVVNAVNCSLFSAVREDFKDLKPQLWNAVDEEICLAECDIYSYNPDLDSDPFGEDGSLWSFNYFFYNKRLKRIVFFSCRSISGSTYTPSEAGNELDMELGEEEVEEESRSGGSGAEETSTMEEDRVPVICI

HA-Maf1/WT [2] = molecular target: T1, HA-Maf1/WT; test: co-IP; lysates of transiently transfected Huh7 or Hep3B cells in IP lysis buffer (50 mM Tris-HCl pH 8.0, 120 mM NaCl, 5 mM EGTA, 0.05% Triton X-100, 0.055% NP-40); IP with anti-HA or anti-GFP antibodies, IgG as negative control; western blot
[3] = molecular target: T2, endogenous Maf1 (human (endogenous in Hep3B)) (UniProt Q9H063); test: proximity ligation; in situ PLA in formaldehyde-fixed Huh7 and Hep3B cells; anti-HA and anti-GFP antibodies for the transfected proteins, anti-Aurora-A and anti-Maf1 antibodies for the endogenous proteins in Hep3B
T2 sequence: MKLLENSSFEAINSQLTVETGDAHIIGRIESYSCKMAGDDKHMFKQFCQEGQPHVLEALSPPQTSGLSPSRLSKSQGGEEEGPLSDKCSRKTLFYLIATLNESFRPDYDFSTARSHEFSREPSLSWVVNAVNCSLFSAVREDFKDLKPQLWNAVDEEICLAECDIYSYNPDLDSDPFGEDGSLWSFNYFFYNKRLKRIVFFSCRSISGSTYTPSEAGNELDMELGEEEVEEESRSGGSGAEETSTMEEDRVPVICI

B1: GFP-Aurora-A (enzyme, UniProt O14965 1-403)
chain: MDRSKENCISGPVKATAPVGGPKRVLVTQQFPCQNPLPVNSGQAQRVLCPSNSSQRIPLQAQKLVSSHKPVQNQKQKQLQATSVPHPVSRPLNNTQKSKQPLPSAPENNPEEELASKQKNEESKKRQWALEDFEIGRPLGKGKFGNVYLAREKQSKFILALKVLFKAQLEKAGVEHQLRREVEIQSHLRHPNILRLYGYFHDATRVYLILEYAPLGTVYRELQKLSKFDEQRTATYITELANALSYCHSKRVIHRDIKPENLLLGSAGELKIADFGWSVHAPSSRRTTLCGTLDYLPPEMIEGRMHDEKVDLWSLGVLCYEFLVGKPPFEANTYQETYKRISRVEFTFPDFVTEGARDLISRLLKHNPSQRPMLREVLEHPWITANSSKPSNCQNKESASKQS
B1 was tested, and the binding (HA-Maf1/WT [1]) was “binds” and the binding (HA-Maf1/WT [2]) was “binds”.

B2: endogenous Aurora-A (enzyme, UniProt O14965 1-403)
chain: MDRSKENCISGPVKATAPVGGPKRVLVTQQFPCQNPLPVNSGQAQRVLCPSNSSQRIPLQAQKLVSSHKPVQNQKQKQLQATSVPHPVSRPLNNTQKSKQPLPSAPENNPEEELASKQKNEESKKRQWALEDFEIGRPLGKGKFGNVYLAREKQSKFILALKVLFKAQLEKAGVEHQLRREVEIQSHLRHPNILRLYGYFHDATRVYLILEYAPLGTVYRELQKLSKFDEQRTATYITELANALSYCHSKRVIHRDIKPENLLLGSAGELKIADFGWSVHAPSSRRTTLCGTLDYLPPEMIEGRMHDEKVDLWSLGVLCYEFLVGKPPFEANTYQETYKRISRVEFTFPDFVTEGARDLISRLLKHNPSQRPMLREVLEHPWITANSSKPSNCQNKESASKQS
In the case of B2, the binding [3] is reported as “binds” and the binding (HA-Maf1/WT [2]) is reported as “binds”.
